In experiment [1] the target is T1, Flag-NEK5 K33A (NEK5^K33A, kinase-dead NEK5) (human) (UniProt Q6P3R8).
T1 sequence: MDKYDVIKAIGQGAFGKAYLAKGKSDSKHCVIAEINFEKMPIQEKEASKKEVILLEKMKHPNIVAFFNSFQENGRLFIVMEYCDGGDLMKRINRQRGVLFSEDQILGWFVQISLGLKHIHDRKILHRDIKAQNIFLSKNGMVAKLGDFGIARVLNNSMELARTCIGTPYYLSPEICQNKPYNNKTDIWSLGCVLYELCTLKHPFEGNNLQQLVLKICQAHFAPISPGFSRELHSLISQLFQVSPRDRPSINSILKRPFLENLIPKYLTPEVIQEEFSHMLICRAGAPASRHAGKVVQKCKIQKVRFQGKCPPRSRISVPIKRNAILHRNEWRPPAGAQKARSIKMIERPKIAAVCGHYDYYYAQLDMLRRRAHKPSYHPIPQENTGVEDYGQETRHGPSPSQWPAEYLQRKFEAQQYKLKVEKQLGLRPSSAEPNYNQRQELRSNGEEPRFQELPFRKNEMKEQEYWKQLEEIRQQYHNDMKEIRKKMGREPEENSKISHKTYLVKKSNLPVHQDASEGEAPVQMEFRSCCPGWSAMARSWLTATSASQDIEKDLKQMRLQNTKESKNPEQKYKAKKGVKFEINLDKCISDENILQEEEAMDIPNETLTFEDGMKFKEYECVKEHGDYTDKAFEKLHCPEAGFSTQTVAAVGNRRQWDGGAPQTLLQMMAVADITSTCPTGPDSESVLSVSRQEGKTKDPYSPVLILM
Nature of the experiment: co-IP; Flag-NEK5^K33A as bait on anti-FLAG M2 agarose, total cell lysate of Flp-In T-REx 293T NEK5^K33A cells, blot with anti-LonP1.

The target of experiment [2] is T2, Flag-NEK5 wild-type (NEK5^WT) (human) (UniProt Q6P3R8).
T2 sequence: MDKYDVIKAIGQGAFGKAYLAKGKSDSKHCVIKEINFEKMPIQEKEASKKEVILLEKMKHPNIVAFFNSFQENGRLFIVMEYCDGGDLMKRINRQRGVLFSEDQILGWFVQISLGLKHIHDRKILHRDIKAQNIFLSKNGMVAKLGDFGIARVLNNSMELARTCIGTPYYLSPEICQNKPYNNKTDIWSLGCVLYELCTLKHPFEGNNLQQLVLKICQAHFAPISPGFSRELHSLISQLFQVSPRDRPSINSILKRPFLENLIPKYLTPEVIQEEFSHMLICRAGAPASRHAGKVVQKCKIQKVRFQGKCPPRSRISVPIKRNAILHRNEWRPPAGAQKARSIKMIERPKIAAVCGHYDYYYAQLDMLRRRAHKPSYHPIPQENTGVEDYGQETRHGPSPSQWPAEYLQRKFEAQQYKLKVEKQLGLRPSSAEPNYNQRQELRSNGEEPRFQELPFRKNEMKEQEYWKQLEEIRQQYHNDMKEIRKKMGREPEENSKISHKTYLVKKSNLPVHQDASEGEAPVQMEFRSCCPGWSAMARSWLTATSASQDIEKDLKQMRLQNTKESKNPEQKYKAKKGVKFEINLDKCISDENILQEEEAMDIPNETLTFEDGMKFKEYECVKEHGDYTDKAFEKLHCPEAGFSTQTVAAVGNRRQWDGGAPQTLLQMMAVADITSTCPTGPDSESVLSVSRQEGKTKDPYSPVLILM
Nature of the experiment: co-IP; Flag-NEK5^WT as bait on anti-FLAG M2 agarose, 3 h at 4 °C, crude mitochondrial extract of Flp-In T-REx 293T cells, eluted with 3x FLAG peptide, blot with anti-LonP1.

The target of the next experiment is T3, LonP1-flag (UniProt P36776).
T3 sequence: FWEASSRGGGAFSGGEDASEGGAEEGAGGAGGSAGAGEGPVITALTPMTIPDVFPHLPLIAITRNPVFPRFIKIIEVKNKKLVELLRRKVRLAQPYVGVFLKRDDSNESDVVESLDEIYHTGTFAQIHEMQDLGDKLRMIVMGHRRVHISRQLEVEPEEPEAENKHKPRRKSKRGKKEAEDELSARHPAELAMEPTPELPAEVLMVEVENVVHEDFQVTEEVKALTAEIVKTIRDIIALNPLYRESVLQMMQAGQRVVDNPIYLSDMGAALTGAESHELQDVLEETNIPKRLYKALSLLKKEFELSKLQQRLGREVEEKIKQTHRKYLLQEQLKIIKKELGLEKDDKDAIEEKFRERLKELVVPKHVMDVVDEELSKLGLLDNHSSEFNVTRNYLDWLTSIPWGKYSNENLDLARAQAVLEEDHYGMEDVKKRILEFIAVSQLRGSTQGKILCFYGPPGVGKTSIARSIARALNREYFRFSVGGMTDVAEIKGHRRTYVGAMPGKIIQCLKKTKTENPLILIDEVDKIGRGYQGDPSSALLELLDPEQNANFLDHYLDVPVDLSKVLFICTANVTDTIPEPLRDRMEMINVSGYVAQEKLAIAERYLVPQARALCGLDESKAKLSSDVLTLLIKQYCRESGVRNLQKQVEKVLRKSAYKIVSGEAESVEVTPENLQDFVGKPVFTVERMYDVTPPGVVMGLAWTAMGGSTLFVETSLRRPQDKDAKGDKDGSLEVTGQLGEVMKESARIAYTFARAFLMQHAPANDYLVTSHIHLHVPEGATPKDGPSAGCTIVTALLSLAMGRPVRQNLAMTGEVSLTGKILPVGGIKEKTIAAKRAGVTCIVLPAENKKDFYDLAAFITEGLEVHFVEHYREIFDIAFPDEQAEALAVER
Nature of the experiment: co-IP; reverse co-IP: LonP1-flag as bait on anti-FLAG M2 agarose, 1 h at 4 °C, lysate of co-transfected HEK293T cells, eluted by boiling in sample buffer, blot with anti-Myc and anti-NEK5.

Experiment [3] deals with T4, LonP1 (endogenous, U2OS cells) (human (endogenous in U2OS)) (UniProt P36776).
T4 sequence: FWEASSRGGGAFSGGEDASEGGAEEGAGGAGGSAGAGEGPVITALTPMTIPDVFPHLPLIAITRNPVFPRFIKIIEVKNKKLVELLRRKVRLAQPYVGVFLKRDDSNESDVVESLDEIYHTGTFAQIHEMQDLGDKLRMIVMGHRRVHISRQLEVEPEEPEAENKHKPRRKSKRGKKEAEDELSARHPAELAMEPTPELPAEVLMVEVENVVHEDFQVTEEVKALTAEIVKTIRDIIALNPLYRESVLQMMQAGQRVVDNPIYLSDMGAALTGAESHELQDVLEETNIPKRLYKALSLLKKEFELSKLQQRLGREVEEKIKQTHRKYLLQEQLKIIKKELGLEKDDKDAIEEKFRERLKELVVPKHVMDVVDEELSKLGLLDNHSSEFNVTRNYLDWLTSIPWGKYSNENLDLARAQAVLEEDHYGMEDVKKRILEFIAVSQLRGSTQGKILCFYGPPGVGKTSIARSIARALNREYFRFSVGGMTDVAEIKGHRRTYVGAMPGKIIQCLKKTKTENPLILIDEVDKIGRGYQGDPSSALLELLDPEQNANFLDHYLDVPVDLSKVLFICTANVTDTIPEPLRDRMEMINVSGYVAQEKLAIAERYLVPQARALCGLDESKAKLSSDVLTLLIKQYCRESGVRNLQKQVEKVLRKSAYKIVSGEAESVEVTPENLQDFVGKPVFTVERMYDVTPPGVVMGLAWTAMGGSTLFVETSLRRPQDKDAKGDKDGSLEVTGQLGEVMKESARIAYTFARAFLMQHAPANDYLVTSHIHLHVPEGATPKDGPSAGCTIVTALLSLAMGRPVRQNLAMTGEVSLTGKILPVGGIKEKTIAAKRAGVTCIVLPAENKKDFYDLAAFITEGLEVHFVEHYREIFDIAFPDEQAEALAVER
Description: proximity ligation; Duolink PLA in fixed U2OS cells with anti-NEK5 and anti-LonP1 or anti-TFAM; cells untransfected or transfected with pcDNA3.2LonP1-flag for 48 h; untreated or treated with rotenone 2 μM for 1 h.

For experiment [4], the target named is T5, TFAM (transcription factor A, mitochondrial; endogenous, U2OS cells) (human (endogenous in U2OS)) (UniProt Q00059).
T5 sequence: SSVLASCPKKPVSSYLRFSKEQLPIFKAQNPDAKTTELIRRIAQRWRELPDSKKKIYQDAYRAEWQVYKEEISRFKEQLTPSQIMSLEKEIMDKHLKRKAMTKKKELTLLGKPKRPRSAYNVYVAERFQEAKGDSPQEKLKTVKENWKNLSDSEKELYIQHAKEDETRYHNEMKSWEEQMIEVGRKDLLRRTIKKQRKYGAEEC
The experiment is described as above.

No constants are given. Whether binding was seen depends on the method and setting. In cells and extracts the contact can be indirect. Some entries that bind do so weakly or less than the wild type. For some assays here: Where a sequence is shown, tags or fusion partners need not be part of it.

B1: LonP1 (endogenous, Flp-In T-REx 293T cells) (protein, UniProt P36776 68-959)
chain: FWEASSRGGGAFSGGEDASEGGAEEGAGGAGGSAGAGEGPVITALTPMTIPDVFPHLPLIAITRNPVFPRFIKIIEVKNKKLVELLRRKVRLAQPYVGVFLKRDDSNESDVVESLDEIYHTGTFAQIHEMQDLGDKLRMIVMGHRRVHISRQLEVEPEEPEAENKHKPRRKSKRGKKEAEDELSARHPAELAMEPTPELPAEVLMVEVENVVHEDFQVTEEVKALTAEIVKTIRDIIALNPLYRESVLQMMQAGQRVVDNPIYLSDMGAALTGAESHELQDVLEETNIPKRLYKALSLLKKEFELSKLQQRLGREVEEKIKQTHRKYLLQEQLKIIKKELGLEKDDKDAIEEKFRERLKELVVPKHVMDVVDEELSKLGLLDNHSSEFNVTRNYLDWLTSIPWGKYSNENLDLARAQAVLEEDHYGMEDVKKRILEFIAVSQLRGSTQGKILCFYGPPGVGKTSIARSIARALNREYFRFSVGGMTDVAEIKGHRRTYVGAMPGKIIQCLKKTKTENPLILIDEVDKIGRGYQGDPSSALLELLDPEQNANFLDHYLDVPVDLSKVLFICTANVTDTIPEPLRDRMEMINVSGYVAQEKLAIAERYLVPQARALCGLDESKAKLSSDVLTLLIKQYCRESGVRNLQKQVEKVLRKSAYKIVSGEAESVEVTPENLQDFVGKPVFTVERMYDVTPPGVVMGLAWTAMGGSTLFVETSLRRPQDKDAKGDKDGSLEVTGQLGEVMKESARIAYTFARAFLMQHAPANDYLVTSHIHLHVPEGATPKDGPSAGCTIVTALLSLAMGRPVRQNLAMTGEVSLTGKILPVGGIKEKTIAAKRAGVTCIVLPAENKKDFYDLAAFITEGLEVHFVEHYREIFDIAFPDEQAEALAVER
For the molecule B1, the binding entry in experiment [1] and in experiment [2] was “binds” in each case.

B2: MYC-NEK5^WT-BioID (protein, UniProt Q6P3R8 1-708)
chain: MDKYDVIKAIGQGAFGKAYLAKGKSDSKHCVIKEINFEKMPIQEKEASKKEVILLEKMKHPNIVAFFNSFQENGRLFIVMEYCDGGDLMKRINRQRGVLFSEDQILGWFVQISLGLKHIHDRKILHRDIKAQNIFLSKNGMVAKLGDFGIARVLNNSMELARTCIGTPYYLSPEICQNKPYNNKTDIWSLGCVLYELCTLKHPFEGNNLQQLVLKICQAHFAPISPGFSRELHSLISQLFQVSPRDRPSINSILKRPFLENLIPKYLTPEVIQEEFSHMLICRAGAPASRHAGKVVQKCKIQKVRFQGKCPPRSRISVPIKRNAILHRNEWRPPAGAQKARSIKMIERPKIAAVCGHYDYYYAQLDMLRRRAHKPSYHPIPQENTGVEDYGQETRHGPSPSQWPAEYLQRKFEAQQYKLKVEKQLGLRPSSAEPNYNQRQELRSNGEEPRFQELPFRKNEMKEQEYWKQLEEIRQQYHNDMKEIRKKMGREPEENSKISHKTYLVKKSNLPVHQDASEGEAPVQMEFRSCCPGWSAMARSWLTATSASQDIEKDLKQMRLQNTKESKNPEQKYKAKKGVKFEINLDKCISDENILQEEEAMDIPNETLTFEDGMKFKEYECVKEHGDYTDKAFEKLHCPEAGFSTQTVAAVGNRRQWDGGAPQTLLQMMAVADITSTCPTGPDSESVLSVSRQEGKTKDPYSPVLILM
With B2, the binding entry in the experiment with LonP1-flag is “binds”.

B3: NEK5 (endogenous, U2OS cells) (protein, UniProt Q6P3R8 1-708)
chain: MDKYDVIKAIGQGAFGKAYLAKGKSDSKHCVIKEINFEKMPIQEKEASKKEVILLEKMKHPNIVAFFNSFQENGRLFIVMEYCDGGDLMKRINRQRGVLFSEDQILGWFVQISLGLKHIHDRKILHRDIKAQNIFLSKNGMVAKLGDFGIARVLNNSMELARTCIGTPYYLSPEICQNKPYNNKTDIWSLGCVLYELCTLKHPFEGNNLQQLVLKICQAHFAPISPGFSRELHSLISQLFQVSPRDRPSINSILKRPFLENLIPKYLTPEVIQEEFSHMLICRAGAPASRHAGKVVQKCKIQKVRFQGKCPPRSRISVPIKRNAILHRNEWRPPAGAQKARSIKMIERPKIAAVCGHYDYYYAQLDMLRRRAHKPSYHPIPQENTGVEDYGQETRHGPSPSQWPAEYLQRKFEAQQYKLKVEKQLGLRPSSAEPNYNQRQELRSNGEEPRFQELPFRKNEMKEQEYWKQLEEIRQQYHNDMKEIRKKMGREPEENSKISHKTYLVKKSNLPVHQDASEGEAPVQMEFRSCCPGWSAMARSWLTATSASQDIEKDLKQMRLQNTKESKNPEQKYKAKKGVKFEINLDKCISDENILQEEEAMDIPNETLTFEDGMKFKEYECVKEHGDYTDKAFEKLHCPEAGFSTQTVAAVGNRRQWDGGAPQTLLQMMAVADITSTCPTGPDSESVLSVSRQEGKTKDPYSPVLILM
Take B3: the binding entry in experiment [3] and in experiment [4] was “binds” in each case.
